Experimental data from US20110311475A1 (published 2011).

Biological target: T1, Recombinant Human IL-4 Rα Fc Chimera protein (R&D Systems) (human, UniProt P24394 26-231)
T1 construct: In the assay it was coupled to DyLight 649 conjugated Protein A; also called IL-4Rα subunit; Fc part of the bought chimera not given
T1 sequence (looked up): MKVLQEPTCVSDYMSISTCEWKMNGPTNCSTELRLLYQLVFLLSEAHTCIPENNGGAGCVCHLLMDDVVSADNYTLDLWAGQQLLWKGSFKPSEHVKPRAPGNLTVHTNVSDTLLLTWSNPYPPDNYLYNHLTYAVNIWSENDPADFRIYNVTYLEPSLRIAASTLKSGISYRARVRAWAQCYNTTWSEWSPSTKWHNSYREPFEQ
Experiment: bead-based flow cytometric immunoassay, receptor-Fc chimera/Protein A-DyLight 649 (FIG. 19D)
Source text: Both goat anti-human IL-21 and rabbit anti-human IL-21 antibodies were initially tested using a Western blot technique to confirm suitable detection of the IL-21 variant proteins with the predicted size. The success of antibody-to-bead conjugation was verified using PE Goat anti-Rabbit IgG Detector (BD Biosciences). To detect the receptor interaction of bead-captured IL-21 variants with the Interleukin-21 receptor proprietary subunit, the Interleukin-4 receptor alpha subunit, the Interleukin-2 receptor alpha or the Interleukin-2 receptor beta, appropriate receptor-Fc-chimera proteins were coupled with a Protein-A-fluorochrome complex suitable for flow cytometric evaluation. […] 50 μl of antibody-coated beads and serial dilutions of IL-21 variant proteins, with final concentrations ranging from 100 pg/ml to 1 μg/ml, were incubated together with the fluorescence conjugated receptor-chimera-Protein-A complexes in excess in 96-well plates for 3 h on a titer plate shaker. […] Bead particles were discriminated on the basis of size and fluorescence (see FIGS. 19A and B) on a BD FACSCanto II system with BD FACSDiva software (BD Biosciences). […]

- binding result: binds
B1: "Chim-hIL-21/4" (ligand)
chain: QGQDRHMIRMRQLIDIVDQLKNYVNDLVPEFLPAPEDVETNCEWSAFSCFQKAQLKSANTGNNERIINVSIKKLKRNLWGLAGLNSCPSCDSYEKKPPKEFLERFKSLLQKMIHQHLSSRTHGSEDS
notes: The tag was cleaved off before the assay; also called Chim-hIL-21/4 protein; chimeric IL21-IL4 protein of Bondensgaard et al. (2007)
